No constants are given. Whether binding was seen depends on the method and setting. Binding seen in cells or lysates may run through a third protein. Some binding calls cover weakened binding; strength is not graded here. Blank lines part the entries; values can stand above or below the substance they belong to.
Legend:
[1] = molecular target: native α4 nAChR subunit from mouse brain (mouse (endogenous in mouse brain)) (UniProt O70174); assay: co-IP; mouse brain S3 fraction (Triton-soluble crude membranes) on M-270 Epoxy Dynabeads linked to nAChR antibodies (methods: mAb299 anti-α4 combined with mAb270 anti-β2; results and legend: anti-α4); overnight at 4 °C; bands of α4 and β2 excised from the gel and identified by LC-MS/MS; mice given saline, acute nicotine or chronic nicotine
[2] = molecular target: β2-nAChR-YFP (nAChR Beta2-YFP) (mouse) (UniProt Q9ERK7); assay: co-IP; lysates of transfected HEK cells on magnetic GFP-nAb resin (Allele), which captures the YFP-tagged subunit; binding buffer 10 mM Tris-HCl, 150 mM NaCl, pH 7.5, detergent not above 0.6%; overnight at 4 °C; high-salt TBS washes; eluate run on SDS gels, bands of tagged and untagged subunits excised and identified by LC-MS/MS; cells co-expressed mRuby or CaMKII-mRuby; some samples treated on the resin with lambda phosphatase, PKA or CaMKIIα
[3] = molecular target: α4-nAChR-YFP (nAChR alpha4-YFP) (mouse) (UniProt O70174); assay: as above

By UniProt entry, the sequences of proteins in these tests, tags left out. Where a name states a change or a piece, a line headed by the entry shows the natural chain unless it says otherwise. Residues count along the entry.
UniProt O70174, residues 31-629: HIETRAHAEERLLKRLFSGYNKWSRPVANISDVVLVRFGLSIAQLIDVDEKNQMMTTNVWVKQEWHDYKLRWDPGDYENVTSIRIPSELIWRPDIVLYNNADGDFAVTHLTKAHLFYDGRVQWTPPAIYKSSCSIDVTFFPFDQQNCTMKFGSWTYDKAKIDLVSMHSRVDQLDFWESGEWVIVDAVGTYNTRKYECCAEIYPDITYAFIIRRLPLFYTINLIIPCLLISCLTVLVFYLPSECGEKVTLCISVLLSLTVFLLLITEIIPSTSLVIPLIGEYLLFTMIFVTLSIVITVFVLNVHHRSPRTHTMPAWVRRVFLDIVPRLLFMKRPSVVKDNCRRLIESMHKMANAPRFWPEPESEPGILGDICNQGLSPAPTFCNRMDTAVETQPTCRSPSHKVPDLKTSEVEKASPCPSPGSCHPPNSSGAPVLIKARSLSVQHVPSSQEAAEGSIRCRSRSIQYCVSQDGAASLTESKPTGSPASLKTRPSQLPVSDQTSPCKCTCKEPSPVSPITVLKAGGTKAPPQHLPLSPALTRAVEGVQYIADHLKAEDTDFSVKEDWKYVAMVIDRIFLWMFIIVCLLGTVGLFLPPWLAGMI
UniProt Q9ERK7: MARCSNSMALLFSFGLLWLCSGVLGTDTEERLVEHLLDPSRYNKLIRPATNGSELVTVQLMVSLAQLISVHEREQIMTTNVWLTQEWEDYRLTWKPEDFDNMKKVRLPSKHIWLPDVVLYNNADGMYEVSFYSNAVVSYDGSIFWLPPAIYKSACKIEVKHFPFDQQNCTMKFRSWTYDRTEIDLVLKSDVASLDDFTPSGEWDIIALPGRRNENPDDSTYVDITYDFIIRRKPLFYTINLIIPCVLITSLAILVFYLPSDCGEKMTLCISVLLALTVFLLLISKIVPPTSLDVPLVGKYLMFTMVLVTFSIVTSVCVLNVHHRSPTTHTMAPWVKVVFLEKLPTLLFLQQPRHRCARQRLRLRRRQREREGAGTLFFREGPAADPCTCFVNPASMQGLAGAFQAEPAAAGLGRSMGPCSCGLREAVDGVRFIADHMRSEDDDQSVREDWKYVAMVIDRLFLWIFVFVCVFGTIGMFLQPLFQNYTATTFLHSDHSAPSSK

binding [1]: binds
Substance: native β2 nAChR subunit from mouse brain (from UniProt Q9ERK7 26-501) (receptor)

binding [2]: binds
Substance: untagged α4-nAChR (nAChR alpha4 WT) (from UniProt O70174 31-629) (receptor)

binding [3]: binds
Substance: untagged β2-nAChR (nAChR beta2 WT) (from UniProt Q9ERK7 26-501) (receptor)
